Measurements from PubChem BioAssay AID540303 (National Center for Advancing Translational Sciences (NCATS), 2011).
Out of some 330,000 compounds screened, about 1,000 (0.3%) were called active. This list was built around the results that the source calls inconclusive (neither active nor inactive); the mix of calls is not that of the screen. Calls follow the shape of the dose curve; as a rule, active = well fitted inhibition curve with a large enough effect; inconclusive = small, poorly fitted or top-dose-only effect; inactive = no such curve, though single readings can be large or run the other way; tested in mouse RAW 264.7 cells. Potencies of inconclusive entries are doubtful fits and often do not repeat.

assay: qHTS for Inhibitors of Cell Surface uPA Generation; settings: cell surface uPA generation assay; series mostly up to 38.3 µM; also: nearly all actives have a fitted effect of over 55% in size
Method in brief: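 RAW 264.7 cells, 4000/well, given compound (1:5 dilutions, up to 38.3 uM final) and incubated 24 h at 37 C. Blocked uPA-dependent LF entry keeps ATP high; ATPlite luminescence read, 5 s exposure.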
Potency is read from the fitted curve at half-maximal effect.

SMILES	Potency
CC1=NN(C(=O)c2ccccc2Cl)C(O)(c2ccccc2)C1 (configuration not stated)	inactive
CC1CC(C)CN(S(=O)(=O)c2ccc3c(c2)CC(C)N3C(=O)C2CCC2)C1 (configuration not stated)	inconclusive: 3.16 µM [inhibitor, single point]
CS(=O)(=O)c1ccc(C(=O)NCCN2C(=O)S/C(=C\c3cccnc3)C2=O)cc1[N+](=O)[O-]	inconclusive: 2.24 µM [inhibitor, full curve]
O=C(NCc1ccco1)C1CCN(c2ccc(S(=O)(=O)N3CCOCC3)cc2[N+](=O)[O-])CC1	inactive
Cc1cc(OCC(=O)Nc2ccncc2)cc(C)c1Cl	inconclusive: 0.316 µM [inhibitor, partial curve, poor fit]
CC(OC(=O)/C=C/c1ccc2ccccc2n1)C(=O)NCc1ccccc1 (configuration not stated)	inconclusive: 10 µM [inhibitor, single point]
CCOc1ccc(-c2c[n+]3c(n2-c2ccccc2)CCCCC3)cc1	inconclusive: 6.31 µM [inhibitor, partial curve, poor fit]
Cc1ccc(CNC(=O)C23CN(Cc4ccccc4)CC2C(c2ccc([N+](=O)[O-])cc2)=NO3)o1 (configuration not stated)	inconclusive: 3.16 µM [inhibitor, partial curve, poor fit]
COCCn1c(C)cc(C(=O)COC(=O)c2ccccc2Br)c1C	active: 2.51 µM
CCOc1ccc(/C=C2\CCC(C3CCCC3)C2=O)cc1OC (configuration not stated)	inactive
COc1ccc2[nH]c3c(c2c1)CCNC3C1CC=C(C)CC1 (configuration not stated)	active: 2.82 µM
CC(=O)N(C)c1ccc(OCC(O)Cn2c(C)nc3ccccc32)cc1 (configuration not stated)	inactive
CN(Cc1ccccc1)CC(O)COc1ccc(CNCc2cccnc2)cc1 (configuration not stated)	inconclusive: 5.01 µM [inhibitor, partial curve, poor fit]
CCOc1ccc(/C=N/Nc2ccccn2)cc1	active: 6.31 µM
O=C(CCC(=O)N1CCN(C2CCCCC2)CC1)Nc1nnc(C(F)(F)F)s1	inactive
COC(=O)c1c(NC(=O)COC(=O)[C@@H](NS(=O)(=O)c2cccc(Cl)c2)C(C)C)sc2c1CCC2	inactive
Cc1cc(CN(C)C(=O)c2ccc(OC3CCN(Cc4ccccn4)CC3)cc2)on1	inconclusive: 0.0112 µM [inhibitor, full curve, poor fit]
CC1=C(C(=O)OCc2ccccc2)C(c2ccc(C(C)(C)C)cc2)NC(=O)N1CCCCCC(=O)O (configuration not stated)	inconclusive: 10 µM [inhibitor, partial curve, poor fit]
O=C(CSc1nnc2c(n1)[nH]c1ccccc12)Nc1ccc(N2CCOCC2)cc1	inactive
O=C(CSc1cn(Cc2ccccc2)c2ccccc12)Nc1nccs1	inconclusive: 7.08 µM [inhibitor, partial curve, poor fit]
c1ccc(CNc2nc3ccccc3[nH]2)cc1	inconclusive: 11.2 µM [inhibitor, partial curve, poor fit]
O=C(O)c1cc(/C=C/c2ccc(N3CCOCC3)c([N+](=O)[O-])c2)nc2ccccc12	inconclusive: 2 µM [inhibitor, full curve]
COc1ncnc2c1NC1=C(S2)C(=NCCC(=O)O)CC(C)(C)C1	inactive

SMILES	Potency
Oc1ccc(Oc2ccc(Oc3ccc(O)cc3)cc2)cc1	inconclusive: 2.24 µM [inhibitor, partial curve, poor fit]
CC(=O)c1cccc(Nc2nc(-c3cccnc3)cs2)c1	inactive
COc1cccc(C(=O)Nc2cccc(-c3ccc4nncn4n3)c2)c1OC	inactive
COc1ccc(C(=O)Nc2ccc3c(c2)OCCO3)cc1Br	inconclusive: 8.91 µM [inhibitor, partial curve, poor fit]
O=C(C(Cc1ccccc1)n1cccc1)N1CCN(c2cccc(Cl)c2)CC1 (configuration not stated)	inconclusive: 7.94 µM [inhibitor, single point]
N/C(=N\OC(=O)c1cccc(Cn2cc(C(F)(F)F)ccc2=O)c1)c1ccccc1	inconclusive: 10 µM [inhibitor, single point]
CCN(CCn1cccn1)C(=O)c1cc(COc2ccccc2SC)on1	inactive
CC[C@@H]1CC=C[C@H]2[C@H]1C(=O)N(Cc1ccccc1)[C@H]2c1ccoc1	inconclusive: 10 µM [inhibitor, partial curve, poor fit]
CCOc1ccccc1N1CSC2=C(C#N)C(c3c(OC)ccc4ccccc34)CC(=O)N2C1 (configuration not stated)	inconclusive: 7.94 µM [inhibitor, partial curve, poor fit]
Cc1ccc(S(=O)(=O)CCC(=O)Nc2nc(-c3ccccn3)cs2)cc1	inconclusive: 2.24 µM [inhibitor, full curve]
C[C@]12c3[nH]c4ccccc4c3CCN1C(=O)C(CC(=O)NCc1ccco1)C[C@@H]2C(=O)N1CCOCC1 (some centres not stated)	inconclusive: 11.2 µM [inhibitor, partial curve, poor fit]
CCc1ccccc1N(C)S(=O)(=O)c1cc(-c2cc(C)no2)ccc1OC	inconclusive: 11.2 µM [inhibitor, single point]
C[C@@H](NC(=O)[C@@H]1Cc2ccccc2CN1)C(=O)NC1CCCC1	active: 7.08 µM
CN(C)c1ccc(/C=C(\C#N)C(=O)OCC(=O)N(C)C2CCS(=O)(=O)C2)cc1 (configuration not stated)	inactive
NS(=O)(=O)c1ccc(N/N=C/c2ccc(O)cc2O)c([N+](=O)[O-])c1	inactive
O=[N+]([O-])C(=C1Nc2ccccc2N1)/C(Cl)=C(/Cl)Br	inconclusive: 22.4 µM [inhibitor, single point]
CCN(CC)CCNCc1cc(Cl)c(OCC(=O)Nc2ccccc2)c(OC)c1	inconclusive: 12.6 µM [inhibitor, partial curve, poor fit]
COc1ccccc1C(=O)N/C(=C\c1cn(S(=O)(=O)N(C)C)c2ccccc12)C(=O)N1CCCC1	inconclusive: 14.1 µM [inhibitor, partial curve, poor fit]
COc1cc2ncnc(NCCc3ccccc3)c2cc1OC	inconclusive: 12.6 µM [inhibitor, single point]
COc1ccc(-n2c(C)cc(C(=O)CN3C(=O)C(=O)N(Cc4ccccc4)C3=O)c2C)cc1	inconclusive: 28.2 µM [inhibitor, single point]
Cc1c(C(=O)N/N=C/c2ccccc2)[nH]c2ccc(Cl)cc12	active: 2.82 µM
N#Cc1cc2c(=O)n3ccccc3nc2n(-c2ccccc2Cl)c1=O	inconclusive: 11.2 µM [inhibitor, partial curve, poor fit]
CCCOc1ccc(/C=N/Nc2cc(N3CCOCC3)ncn2)c(O)c1	inconclusive: 31.6 µM [inhibitor, partial curve, poor fit]

As entered above.
Potency, COc1cccc(C(=O)Nc2cccc(-c3ccc4nncn4n3)c2)c1OC reads inactive
Potency, COc1cc2ncnc(NCCc3ccccc3)c2cc1OC reads inconclusive: 12.6 µM [inhibitor, single point]

(continued)

SMILES	Potency
COc1ccc(NC(=S)N/N=C2/CCCc3c(C)cc(C)cc32)cc1	inactive
CCOC(=O)N1CCN(C(=O)c2cn(CCOC)c(=O)c3c2c2ccccc2n3C)CC1	inactive
COc1ccc2oc(-c3ccco3)cc(=O)c2c1	inactive
CCC(=O)OC1(C(=O)CCl)[C@@H](C)C[C@H]2[C@@H]3CCC4=CC(=O)C=C[C@]4(C)[C@@]3(F)[C@@H](O)C[C@@]21C (some centres not stated)	inactive
O=C(COC(=O)Cc1cccc(C(F)(F)F)c1)NCc1ccco1	inconclusive: 28.2 µM [inhibitor, partial curve, poor fit]
CCS(=O)(=O)CCSC(=N)N	inconclusive: 3.98 µM [inhibitor, partial curve]
Cc1c(C(=O)c2ccc(Cl)cc2Cl)cnc2cc3c(cc12)OCO3	inactive
COc1ccc(NS(=O)(=O)c2ccc(N3CCOCC3)c(N)c2)cc1	inconclusive: 5.62 µM [inhibitor, partial curve, poor fit]
O=C(Nc1cc(-c2ccccc2)nn1C1CCCCC1)c1ccc(Cl)cc1	inconclusive: 12.6 µM [inhibitor, single point]
CCCCCc1cc(=O)oc2c(C(CCN(CC)CC)c3ccc(OC)cc3)c(OC)cc(OC)c12 (configuration not stated)	inconclusive: 5.62 µM [inhibitor, single point]
Cc1cccc(/C=C/C(=O)c2ccc(NC3=NCCCS3)cc2)c1	inconclusive: 5.62 µM [inhibitor, partial curve, poor fit]
CC(=O)c1ccc(NC(=O)c2ccc([N+](=O)[O-])o2)cc1	inconclusive: 11.2 µM [inhibitor, partial curve, poor fit]
O=C(NC1CCCCCC1)C(=O)NC1CC1	inactive
COc1cc(C(=O)OCC(C)=O)cc(NC(=O)c2ccco2)c1OC	inconclusive: 2.82 µM [inhibitor, single point]
CC(=O)Nc1ccc(C#Cc2ccc(NC(C)=O)cc2)cc1	inconclusive: 7.94 µM [inhibitor, partial curve, poor fit]
COc1c(/C=N/NC(N)=S)c(C)nn1-c1ccccc1	inactive
CCCCSc1n[nH]c(=S)c2nc[nH]c12	inactive
COc1cccc(-c2csc3ncnc(Sc4nnnn4C)c23)c1	inconclusive: 1.41 µM [inhibitor, partial curve]
O=C(CCCN1C(=O)/C(=C/c2cccc(Br)c2)SC1=S)Nc1ccccn1	inactive
CC1(C)CC[C@]2(C(=O)O)CC[C@]3(C)C(=CC[C@@H]4[C@@]5(C)CC[C@H](O[C@@H]6O[C@H](C(=O)O)[C@@H](O)[C@H](O[C@@H]7OC[C@H](O)[C@H](O)[C@H]7O)[C@H]6O)C(C)(C)[C@@H]5CC[C@]43C)[C@@H]2C1	inconclusive: 28.2 µM [inhibitor, single point]
CCc1ccccc1Nc1nn2c(=O)c3ccc(C(=O)NCc4ccccn4)cc3nc2s1	inconclusive: 3.16 µM [inhibitor, partial curve, poor fit]

A portion of the results above:
SMILES	Potency
O=C(Nc1cc(-c2ccccc2)nn1C1CCCCC1)c1ccc(Cl)cc1	inconclusive: 12.6 µM [inhibitor, single point]
CCCCCc1cc(=O)oc2c(C(CCN(CC)CC)c3ccc(OC)cc3)c(OC)cc(OC)c12 (configuration not stated)	inconclusive: 5.62 µM [inhibitor, single point]
